Percent effect of library compounds

Protein sequences, listed by entry. Tags and fused reporters are not part of them. Residues count along the entry.
UniProt P9WPC5, whole entry: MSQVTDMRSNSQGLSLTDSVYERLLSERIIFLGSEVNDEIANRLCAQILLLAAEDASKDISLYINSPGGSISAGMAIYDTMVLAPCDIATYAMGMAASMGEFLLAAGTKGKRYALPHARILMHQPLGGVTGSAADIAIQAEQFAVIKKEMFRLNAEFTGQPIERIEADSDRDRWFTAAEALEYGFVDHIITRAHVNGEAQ
UniProt P9WPC3, whole entry partner: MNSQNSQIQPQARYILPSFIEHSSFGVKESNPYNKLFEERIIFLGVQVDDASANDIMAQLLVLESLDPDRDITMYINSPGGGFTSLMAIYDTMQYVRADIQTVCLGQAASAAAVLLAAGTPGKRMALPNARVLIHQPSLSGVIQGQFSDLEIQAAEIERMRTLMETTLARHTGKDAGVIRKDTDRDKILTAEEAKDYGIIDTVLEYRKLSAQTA
UniProt I6X8D2, whole entry: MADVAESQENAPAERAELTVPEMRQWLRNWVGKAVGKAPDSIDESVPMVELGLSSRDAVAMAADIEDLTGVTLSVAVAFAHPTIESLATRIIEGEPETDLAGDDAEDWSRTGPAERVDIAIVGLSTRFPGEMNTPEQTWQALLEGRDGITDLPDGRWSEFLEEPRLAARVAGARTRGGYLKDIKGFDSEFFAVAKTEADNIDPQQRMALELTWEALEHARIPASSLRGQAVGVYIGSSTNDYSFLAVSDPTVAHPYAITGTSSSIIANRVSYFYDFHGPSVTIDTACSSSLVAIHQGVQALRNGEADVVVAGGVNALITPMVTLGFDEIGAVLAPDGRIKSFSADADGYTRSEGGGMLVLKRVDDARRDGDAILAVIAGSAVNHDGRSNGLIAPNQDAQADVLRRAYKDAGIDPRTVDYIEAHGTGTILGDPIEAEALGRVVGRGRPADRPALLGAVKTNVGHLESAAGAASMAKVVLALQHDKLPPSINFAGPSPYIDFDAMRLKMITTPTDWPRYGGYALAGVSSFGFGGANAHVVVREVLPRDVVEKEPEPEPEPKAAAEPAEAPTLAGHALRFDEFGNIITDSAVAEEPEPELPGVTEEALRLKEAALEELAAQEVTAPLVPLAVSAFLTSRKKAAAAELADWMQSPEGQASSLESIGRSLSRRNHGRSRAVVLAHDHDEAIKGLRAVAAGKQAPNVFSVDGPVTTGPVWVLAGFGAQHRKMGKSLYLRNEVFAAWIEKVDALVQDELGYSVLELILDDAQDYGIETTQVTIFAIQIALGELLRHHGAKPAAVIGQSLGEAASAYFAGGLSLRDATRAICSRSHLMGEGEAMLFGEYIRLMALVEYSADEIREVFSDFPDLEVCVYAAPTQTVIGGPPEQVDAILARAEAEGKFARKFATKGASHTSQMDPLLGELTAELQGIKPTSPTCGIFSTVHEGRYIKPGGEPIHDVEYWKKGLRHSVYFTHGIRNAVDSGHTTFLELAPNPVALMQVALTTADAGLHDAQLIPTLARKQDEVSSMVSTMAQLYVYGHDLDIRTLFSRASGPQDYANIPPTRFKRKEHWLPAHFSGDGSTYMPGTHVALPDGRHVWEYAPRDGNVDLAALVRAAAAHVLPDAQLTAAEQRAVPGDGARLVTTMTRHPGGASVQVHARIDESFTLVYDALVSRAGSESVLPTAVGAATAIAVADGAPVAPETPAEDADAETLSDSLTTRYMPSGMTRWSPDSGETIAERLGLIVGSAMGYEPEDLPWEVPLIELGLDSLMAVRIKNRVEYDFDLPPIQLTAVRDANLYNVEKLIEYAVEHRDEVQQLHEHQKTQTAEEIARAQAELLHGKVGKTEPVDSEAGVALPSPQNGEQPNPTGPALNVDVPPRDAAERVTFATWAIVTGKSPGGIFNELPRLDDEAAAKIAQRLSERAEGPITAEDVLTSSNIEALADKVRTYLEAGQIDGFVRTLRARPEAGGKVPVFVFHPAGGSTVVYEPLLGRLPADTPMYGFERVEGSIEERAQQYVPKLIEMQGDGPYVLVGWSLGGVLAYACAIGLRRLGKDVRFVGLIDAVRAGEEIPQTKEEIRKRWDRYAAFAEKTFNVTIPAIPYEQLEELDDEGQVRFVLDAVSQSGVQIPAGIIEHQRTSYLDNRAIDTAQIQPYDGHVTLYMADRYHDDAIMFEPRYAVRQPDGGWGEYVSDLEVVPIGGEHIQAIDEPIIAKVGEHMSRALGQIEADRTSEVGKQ
UniProt P9WNZ1, whole entry: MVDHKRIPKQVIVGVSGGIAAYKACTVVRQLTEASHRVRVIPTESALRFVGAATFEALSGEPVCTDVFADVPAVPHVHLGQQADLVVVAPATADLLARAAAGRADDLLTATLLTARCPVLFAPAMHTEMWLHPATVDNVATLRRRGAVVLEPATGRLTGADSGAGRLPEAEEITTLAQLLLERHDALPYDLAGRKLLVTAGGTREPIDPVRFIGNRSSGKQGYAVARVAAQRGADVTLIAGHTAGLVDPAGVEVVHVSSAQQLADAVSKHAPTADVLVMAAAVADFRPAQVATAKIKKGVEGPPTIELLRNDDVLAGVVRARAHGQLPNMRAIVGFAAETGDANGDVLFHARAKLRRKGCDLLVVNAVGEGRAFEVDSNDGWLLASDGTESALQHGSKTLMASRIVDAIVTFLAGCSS
UniProt A4I591, 1-473: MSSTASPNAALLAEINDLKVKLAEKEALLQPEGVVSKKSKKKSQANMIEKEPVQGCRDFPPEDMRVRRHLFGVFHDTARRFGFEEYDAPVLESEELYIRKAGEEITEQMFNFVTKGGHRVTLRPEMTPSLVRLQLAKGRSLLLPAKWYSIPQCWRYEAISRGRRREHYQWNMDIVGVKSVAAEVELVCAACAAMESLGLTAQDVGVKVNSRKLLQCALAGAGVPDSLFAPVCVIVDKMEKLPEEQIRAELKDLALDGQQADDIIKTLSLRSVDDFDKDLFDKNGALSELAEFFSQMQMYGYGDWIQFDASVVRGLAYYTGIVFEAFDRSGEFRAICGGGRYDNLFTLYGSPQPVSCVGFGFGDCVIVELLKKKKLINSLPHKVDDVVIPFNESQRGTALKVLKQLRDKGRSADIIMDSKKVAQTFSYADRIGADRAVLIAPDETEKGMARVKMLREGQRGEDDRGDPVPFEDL
UniProt Q4DA54, 1-478: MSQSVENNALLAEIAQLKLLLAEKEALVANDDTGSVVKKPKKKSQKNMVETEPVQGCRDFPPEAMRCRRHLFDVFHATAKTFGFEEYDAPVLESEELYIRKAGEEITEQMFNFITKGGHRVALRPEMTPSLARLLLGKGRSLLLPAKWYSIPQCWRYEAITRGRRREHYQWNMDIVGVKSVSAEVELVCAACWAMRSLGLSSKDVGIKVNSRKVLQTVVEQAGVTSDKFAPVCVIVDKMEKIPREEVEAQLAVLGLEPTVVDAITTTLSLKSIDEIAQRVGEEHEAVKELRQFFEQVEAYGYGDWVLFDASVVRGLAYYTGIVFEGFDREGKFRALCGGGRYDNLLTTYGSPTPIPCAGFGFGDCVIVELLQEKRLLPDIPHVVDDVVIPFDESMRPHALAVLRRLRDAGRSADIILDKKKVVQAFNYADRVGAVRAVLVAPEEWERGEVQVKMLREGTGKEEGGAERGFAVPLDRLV

Data taken from ChEMBL document CHEMBL3988442, “University of Dundee, Small-Polar-MMV Screening Library” (2021).

Each number is a percent effect as filed. The record does not define 0% and 100%; most values in the screen are far below 50% and negative numbers occur (in some assays of this library far below -100). Compounds were drawn at random from those tested, without regard to their results.

ClpP1P2: 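Protease assay of ClpP1P2, read by the AMC dye that it sets free. Target: ClpP1P2, Mycobacterium tuberculosis (UniProt P9WPC5 and UniProt P9WPC3). Concentration: 50 µM. Higher reads as stronger inhibition, judged from the few compounds that gave an IC50. Most other retested compounds had strongly negative values. Size under these conditions: about 69,000 compounds, about 10 of them at 50% or above in at least one test.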
Pks13 thioesterase: 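Enzyme assay of the thioesterase domain of polyketide synthase 13; the read-out is not stated. Target: Polyketide synthase Pks13, Mycobacterium tuberculosis (UniProt I6X8D2). Tested at 30 µM. The record gives no direction; the compounds picked for IC50 retests had high values, so higher reads as stronger inhibition. Size under these conditions: about 67,000 compounds, about 300 of them at 50% or above in at least one test.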
CoaBC: 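Coenzyme A biosynthesis protein CoaBC, Mycobacterium tuberculosis (UniProt P9WNZ1). Enzyme assay of CoaBC with a phosphate dye (Biomol Green) read at 650 nm. Compounds at 30 µM. Higher reads as stronger inhibition, judged from the few compounds that gave an IC50. Most strong results did not repeat in a second test. About 67,000 compounds were tested under these conditions; 0.06% (about 40) showed 50% or more at least once.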
LiHisRS: 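Enzyme assay of histidyl-tRNA synthetase; the read-out is not stated. Target: Histidine-tRNA ligase, Leishmania infantum (UniProt A4I591). Tested at 30 µM. The record gives no direction; compounds that gave an IC50 in retests scored well above the rest, so higher reads as stronger inhibition. The assay is labelled LdHisRS but filed under L. infantum. Size under these conditions: about 69,000 compounds, about 410 of them at 50% or above in at least one test.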
TcHisRS: 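Histidine-tRNA ligase, Trypanosoma cruzi CL Brener (UniProt Q4DA54). Enzyme assay of histidyl-tRNA synthetase; the read-out is not stated. Compounds at 30 µM. The record gives no direction; compounds that gave an IC50 in retests scored well above the rest, so higher reads as stronger inhibition. Size under these conditions: about 69,000 compounds, about 31 of them at 50% or above in at least one test.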

* O=c1oc(-c2ccc(F)cc2)nn1CN1CCSCC1 : ClpP1P2: -0.6505%; Pks13 thioesterase: -9.662%; CoaBC: -1.935%; LiHisRS: 12.17%; TcHisRS: 6.322%
* CCN(CC)Cc1cc(C(=O)N2CC[C@@]3(O)CCCC[C@H]3C2)c(C)o1 : ClpP1P2: -7.089%; Pks13 thioesterase: -27.86%; CoaBC: 3.226%; LiHisRS: 14.47%; TcHisRS: 3.448%
* COc1ccc(C2=CCN(C(=O)C3CCCN(C(N)=O)C3)CC2)cc1 (stereo unspecified) : ClpP1P2: 11.03%; Pks13 thioesterase: -2.687%; CoaBC: 11.19%; LiHisRS: 40.91%; TcHisRS: -0.7576%
* FC(F)CNc1cnc(C2CCNCC2)cn1 : ClpP1P2: -0.9826%; Pks13 thioesterase: 17.23%; CoaBC: 0%; LiHisRS: 4.225%; TcHisRS: 2.273%
* CN1Cc2ccccc2CC2(CCN(c3ncccn3)CC2)C1=O : ClpP1P2: -10.24%; Pks13 thioesterase: -17.77%; LiHisRS: 8.547%; TcHisRS: 8.589%
* Cc1ccc(S(=O)(=O)N2CCC(c3n[nH]cc3C(=O)N(C)C)CC2)cc1 : ClpP1P2: -23.21%; Pks13 thioesterase: -4.828%; CoaBC: -1.188%; LiHisRS: 9.859%; TcHisRS: 5.385%
* Cc1ncccc1OC1(C(=O)NCCCN2CCOCC2)CCNCC1 : ClpP1P2: -11.84%; Pks13 thioesterase: -1.253%; CoaBC: -6.61%; LiHisRS: 13.46%; TcHisRS: 1.667%
* CC(=O)N1CCCC2(C1)CN(c1nncs1)CCO2 (stereo unspecified) : ClpP1P2: 1.001%; CoaBC: 4.455%; LiHisRS: 11.71%; TcHisRS: 5.525%
* CCN(CC1CCOC1)C(=O)c1ccc(N(C)C)cc1F (stereo unspecified) : ClpP1P2: -18.1%; Pks13 thioesterase: -818.2%; CoaBC: 17.69%; LiHisRS: 1.786%; TcHisRS: 3.509%
* CS(=O)(=O)N1CC2(CCN(c3nccs3)CC2)c2ccccc21 : ClpP1P2: -0.3291%; Pks13 thioesterase: -30.44%; CoaBC: -5.708%; LiHisRS: 26.32%; TcHisRS: 8.602%
* CCNc1ccnc(NC2CCN(S(C)(=O)=O)CC2)n1 : ClpP1P2: 11.46%; Pks13 thioesterase: -2.259%; CoaBC: 1.932%; LiHisRS: 21.21%; TcHisRS: 1.935%
* CC(C)c1nccc(-c2nccn2CCN(C)S(C)(=O)=O)n1 : ClpP1P2: 16.76%; Pks13 thioesterase: -15.22%; CoaBC: -8.962%; LiHisRS: -3.297%; TcHisRS: 1.031%
* CCc1nnc2n1CCN(CC(=O)Nc1cc(C)on1)C2 : ClpP1P2: -5.266%; Pks13 thioesterase: -8.072%; CoaBC: -3.24%; LiHisRS: 4.959%; TcHisRS: 3.361%
* CC(C)CN1CCC(C(=O)NCCNC(=O)c2ccccc2)CC1 : ClpP1P2: 4.089%; Pks13 thioesterase: -23.7%; CoaBC: -0.6452%; LiHisRS: 27.63%; TcHisRS: 1.478%
* COC(=O)N1CCC(Oc2ccc(C(=O)NCCN(C)C)cc2Cl)CC1 : ClpP1P2: -7.389%; Pks13 thioesterase: -21%; CoaBC: -31.76%; LiHisRS: 13.11%; TcHisRS: 1.163%
* Cc1cc(N2CCC3(CCC(=O)N(CC4CC4)C3)CC2)nc(N)n1 : ClpP1P2: 1.55%; Pks13 thioesterase: -21.56%; CoaBC: -3.084%; LiHisRS: 18.87%; TcHisRS: 5.085%
* Cc1cc(S(=O)(=O)NCC2CNCCOC2)c(C)cc1Cl (stereo unspecified) : ClpP1P2: -6.965%; Pks13 thioesterase: -9.665%; CoaBC: -47.14%; LiHisRS: 4.225%; TcHisRS: 8.287%
* CC[C@@H](CO)NC(=O)c1cccc(CCC(C)(C)O)c1 : ClpP1P2: -21.23%; Pks13 thioesterase: -6.305%; CoaBC: 1.366%; LiHisRS: 14.17%; TcHisRS: -22.22%
* Cn1cccc1C(=O)NC1CCN(c2ccc(OC(F)(F)F)cc2)CC1 : ClpP1P2: -6.691%; Pks13 thioesterase: -9.718%; CoaBC: 4.869%; LiHisRS: 6.612%; TcHisRS: -2.041%
* Cc1noc(C)c1C1CCCN1C(=O)CN1C(=O)OC(C)(C)C1=O (stereo unspecified) : ClpP1P2: 9.126%; Pks13 thioesterase: 36.43%; CoaBC: 3.471%; LiHisRS: -42.86%; TcHisRS: 12%
* CCc1cc(NC2CCN(Cc3ccccc3F)CC2)n2nccc2n1 : ClpP1P2: 1.233%; Pks13 thioesterase: -13.34%; CoaBC: 9.091%; LiHisRS: 21.92%; TcHisRS: 4.865%
* Cn1c(N2CC[C@H](O)C2)nc2cc(C(N)=O)ccc21 : ClpP1P2: -0.9488%; Pks13 thioesterase: -7.813%; CoaBC: 2.138%; LiHisRS: 8.85%; TcHisRS: 2.679%
* CN(C(=O)Cn1nnnc1C(C)(C)C)c1ccccc1 : ClpP1P2: -6.446%; Pks13 thioesterase: -35.44%; CoaBC: 2.02%; LiHisRS: 21.05%; TcHisRS: 0.5848%

Some entries from above, unchanged:

CCc1cc(NC2CCN(Cc3ccccc3F)CC2)n2nccc2n1 gave ClpP1P2: 1.233%; Pks13 thioesterase: -13.34%; CoaBC: 9.091%; LiHisRS: 21.92%; TcHisRS: 4.865%.
CC(=O)N1CCCC2(C1)CN(c1nncs1)CCO2 (stereo unspecified) gave ClpP1P2: 1.001%; CoaBC: 4.455%; LiHisRS: 11.71%; TcHisRS: 5.525%.